Assay results: the supplement of paper PMC8612539
≈ marks a conversion by molar mass, not a printed value. Further values from the same series stand in other lists.

Tested on: Escherichia coli
Assay: minimum inhibitory concentration (MIC)
Protocol: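 Broth microdilution MIC (Sensititre BOPO7F bovine plate, CLSI methods) of 19 antimicrobials against field isolates of P. multocida, M. haemolytica, H. somni (deep nasopharyngeal swabs) and E. coli, Enterococcus spp. (rectal swabs) from weaned dairy heifers. Incubation 16-24 h at 35 C. MIC is the lowest concentration preventing visible growth. Values with <= or > lie at the tested range limits. Trimethoprim-sulfamethoxazole is given as the trimethoprim component of a 1:19 mixture.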

CC1(C)S[C@@H]2[C@H](NC(=O)Cc3ccccc3)C(=O)N2[C@H]1C(=O)O [Penicillin]
Details	minimum inhibitory concentration [µg/mL]
isolate (source animal id): 1	> 8
isolate (source animal id): 2	> 8
isolate (source animal id): 3	> 8
isolate (source animal id): 4	> 8
isolate (source animal id): 5	> 8
isolate (source animal id): 6	> 8
isolate (source animal id): 7	> 8
isolate (source animal id): 17	> 8
isolate (source animal id): 18	> 8
isolate (source animal id): 19	> 8
isolate (source animal id): 20	> 8
isolate (source animal id): 21	> 8
isolate (source animal id): 22	> 8
isolate (source animal id): 23	> 8
isolate (source animal id): 24	> 8
isolate (source animal id): 25	> 8
isolate (source animal id): 26	> 8
isolate (source animal id): 27	> 8
isolate (source animal id): 28	> 8
isolate (source animal id): 29	> 8
isolate (source animal id): 30	> 8
isolate (source animal id): 31	> 8
isolate (source animal id): 32	> 8
isolate (source animal id): 33	> 8
isolate (source animal id): 34	> 8
isolate (source animal id): 35	> 8
isolate (source animal id): 36	> 8
isolate (source animal id): 37	> 8
isolate (source animal id): 38	> 8
isolate (source animal id): 39	> 8
isolate (source animal id): 40	> 8
isolate (source animal id): 41	> 8
isolate (source animal id): 42	> 8
isolate (source animal id): 43	> 8
isolate (source animal id): 44	> 8
isolate (source animal id): 45	> 8
isolate (source animal id): 46	> 8
isolate (source animal id): 47	> 8
isolate (source animal id): 48	> 8
isolate (source animal id): 49	> 8
isolate (source animal id): 50	> 8
isolate (source animal id): 51	> 8
isolate (source animal id): 52	> 8
isolate (source animal id): 53	> 8
isolate (source animal id): 54	> 8
isolate (source animal id): 55	> 8
isolate (source animal id): 56	> 8
isolate (source animal id): 57	> 8
isolate (source animal id): 58	> 8
isolate (source animal id): 59	> 8
isolate (source animal id): 60	> 8
isolate (source animal id): 61	8 (≈ 23.9 µM)
isolate (source animal id): 62	> 8
isolate (source animal id): 63	> 8
isolate (source animal id): 64	> 8
isolate (source animal id): 65	> 8
isolate (source animal id): 66	> 8
isolate (source animal id): 67	> 8
isolate (source animal id): 68	> 8
isolate (source animal id): 69	> 8
isolate (source animal id): 70	> 8
isolate (source animal id): 71	> 8
isolate (source animal id): 72	> 8
isolate (source animal id): 73	> 8
isolate (source animal id): 74	> 8
isolate (source animal id): 75	> 8
isolate (source animal id): 76	> 8
isolate (source animal id): 77	> 8
isolate (source animal id): 78	> 8
isolate (source animal id): 79	> 8
isolate (source animal id): 80	> 8
isolate (source animal id): 81	> 8
isolate (source animal id): 82	> 8
isolate (source animal id): 83	> 8
isolate (source animal id): 84	> 8
isolate (source animal id): 85	> 8
isolate (source animal id): 86	> 8
isolate (source animal id): 87	> 8
isolate (source animal id): 88	> 8
isolate (source animal id): 89	> 8
isolate (source animal id): 90	> 8
isolate (source animal id): 91	> 8
isolate (source animal id): 92	> 8
isolate (source animal id): 93	> 8
isolate (source animal id): 94	> 8
isolate (source animal id): 95	> 8
isolate (source animal id): 96	> 8
isolate (source animal id): 97	> 8
isolate (source animal id): 189	> 8
isolate (source animal id): 190	> 8
isolate (source animal id): 191	> 8
isolate (source animal id): 192	> 8
isolate (source animal id): 193	> 8
isolate (source animal id): 194	> 8
isolate (source animal id): 195	> 8
isolate (source animal id): 196	8 (≈ 23.9 µM)
isolate (source animal id): 197	> 8
isolate (source animal id): 198	> 8
isolate (source animal id): 199	> 8
isolate (source animal id): 200	> 8
isolate (source animal id): 201	> 8
isolate (source animal id): 202	> 8
isolate (source animal id): 203	> 8
isolate (source animal id): 204	> 8
isolate (source animal id): 205	> 8
isolate (source animal id): 206	> 8
isolate (source animal id): 207	> 8
isolate (source animal id): 208	> 8
isolate (source animal id): 209	> 8
isolate (source animal id): 210	> 8
isolate (source animal id): 211	> 8
isolate (source animal id): 212	> 8
isolate (source animal id): 213	> 8
isolate (source animal id): 214	> 8
isolate (source animal id): 215	> 8
isolate (source animal id): 216	> 8
isolate (source animal id): 217	> 8
isolate (source animal id): 218	> 8
isolate (source animal id): 219	> 8
isolate (source animal id): 220	> 8
isolate (source animal id): 221	> 8
isolate (source animal id): 222	> 8
isolate (source animal id): 223	> 8
isolate (source animal id): 224	> 8
isolate (source animal id): 225	> 8
isolate (source animal id): 226	> 8
isolate (source animal id): 227	> 8
isolate (source animal id): 228	> 8
isolate (source animal id): 229	> 8
isolate (source animal id): 230	> 8
isolate (source animal id): 231	> 8
isolate (source animal id): 232	> 8
isolate (source animal id): 233	> 8
isolate (source animal id): 234	> 8
isolate (source animal id): 235	> 8
isolate (source animal id): 236	> 8
isolate (source animal id): 237	> 8
isolate (source animal id): 238	> 8
isolate (source animal id): 239	> 8
isolate (source animal id): 240	> 8
isolate (source animal id): 241	> 8
isolate (source animal id): 242	> 8
isolate (source animal id): 243	> 8
isolate (source animal id): 244	> 8
isolate (source animal id): 245	> 8
isolate (source animal id): 246	> 8
isolate (source animal id): 247	> 8
isolate (source animal id): 248	> 8
isolate (source animal id): 249	> 8
isolate (source animal id): 250	> 8
isolate (source animal id): 251	> 8
isolate (source animal id): 252	> 8
isolate (source animal id): 253	> 8
isolate (source animal id): 254	> 8
isolate (source animal id): 255	> 8
isolate (source animal id): 256	> 8
isolate (source animal id): 257	> 8
isolate (source animal id): 258	> 8
isolate (source animal id): 259	> 8
isolate (source animal id): 260	> 8
isolate (source animal id): 261	> 8
isolate (source animal id): 262	> 8
isolate (source animal id): 263	> 8
isolate (source animal id): 264	> 8
isolate (source animal id): 265	> 8
isolate (source animal id): 266	> 8
isolate (source animal id): 267	> 8
isolate (source animal id): 268	> 8
isolate (source animal id): 269	> 8
isolate (source animal id): 270	> 8
isolate (source animal id): 271	> 8
isolate (source animal id): 272	> 8
isolate (source animal id): 273	> 8
isolate (source animal id): 274	> 8
isolate (source animal id): 275	> 8
isolate (source animal id): 276	> 8
isolate (source animal id): 277	> 8
isolate (source animal id): 278	> 8
isolate (source animal id): 279	> 8
isolate (source animal id): 280	> 8
isolate (source animal id): 281	> 8
isolate (source animal id): 282	> 8
isolate (source animal id): 283	> 8
isolate (source animal id): 284	> 8
isolate (source animal id): 285	> 8
isolate (source animal id): 286	> 8
isolate (source animal id): 287	> 8
isolate (source animal id): 288	> 8
isolate (source animal id): 289	> 8
isolate (source animal id): 290	> 8
isolate (source animal id): 291	> 8
isolate (source animal id): 292	> 8
isolate (source animal id): 293	> 8
isolate (source animal id): 294	> 8
isolate (source animal id): 295	> 8
isolate (source animal id): 296	> 8
isolate (source animal id): 297	> 8
isolate (source animal id): 298	> 8
isolate (source animal id): 299	> 8
isolate (source animal id): 300	> 8
isolate (source animal id): 301	> 8
isolate (source animal id): 302	> 8
isolate (source animal id): 303	> 8
isolate (source animal id): 304	> 8
isolate (source animal id): 305	> 8
isolate (source animal id): 306	> 8
isolate (source animal id): 307	> 8
isolate (source animal id): 308	> 8
isolate (source animal id): 309	> 8
isolate (source animal id): 310	> 8
isolate (source animal id): 311	> 8
isolate (source animal id): 312	> 8
isolate (source animal id): 313	> 8
isolate (source animal id): 314	> 8
isolate (source animal id): 315	> 8
isolate (source animal id): 316	> 8
isolate (source animal id): 317	> 8
isolate (source animal id): 318	> 8
isolate (source animal id): 319	> 8
isolate (source animal id): 320	> 8
isolate (source animal id): 321	> 8
isolate (source animal id): 322	> 8
isolate (source animal id): 323	> 8
isolate (source animal id): 324	> 8
isolate (source animal id): 325	> 8
isolate (source animal id): 326	> 8
isolate (source animal id): 327	> 8
isolate (source animal id): 328	> 8
isolate (source animal id): 329	> 8
isolate (source animal id): 330	> 8
isolate (source animal id): 331	> 8
isolate (source animal id): 332	> 8
isolate (source animal id): 333	> 8
isolate (source animal id): 334	> 8
isolate (source animal id): 335	> 8
isolate (source animal id): 336	> 8
isolate (source animal id): 337	> 8
isolate (source animal id): 338	> 8
isolate (source animal id): 339	> 8
isolate (source animal id): 340	> 8
isolate (source animal id): 341	8 (≈ 23.9 µM)
